The record followed here is publication PMC7819943, “Rice protein-binding microarrays: a tool to detect cis-acting elements near promoter regions in rice”.

Some of the results follow.

The target of the assay is T1, OsSMF1 (Oryza sativa, UniProt Q6ZLB0 1-436).
T1 sequence: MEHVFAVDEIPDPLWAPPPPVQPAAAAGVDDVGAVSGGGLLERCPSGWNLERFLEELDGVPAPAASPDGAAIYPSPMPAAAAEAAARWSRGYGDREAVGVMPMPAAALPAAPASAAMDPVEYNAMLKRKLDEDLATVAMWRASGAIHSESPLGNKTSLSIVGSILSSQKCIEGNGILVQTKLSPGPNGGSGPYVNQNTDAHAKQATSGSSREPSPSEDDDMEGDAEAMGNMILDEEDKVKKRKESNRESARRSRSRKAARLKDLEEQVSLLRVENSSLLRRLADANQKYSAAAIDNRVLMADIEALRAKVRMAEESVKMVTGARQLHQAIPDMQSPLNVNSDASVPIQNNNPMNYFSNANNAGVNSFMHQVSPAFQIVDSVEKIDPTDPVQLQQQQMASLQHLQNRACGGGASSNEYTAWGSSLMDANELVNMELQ
Nature of the assay: protein-binding microarray (RPBM); PBS, 2% BSA, 51.3 ng/ul salmon testes DNA, 50 uM zinc acetate, 200 nM TF, 25 C, 1 h; high values mean tight binding. As to conditions: protein: recombinant; tags: N-terminal polyhistidine and DsRed monomer fusion (pET32a); chain copies: 2; label: CyDye5-dUTP incorporated in the synthesized complementary strand; 3' TTTTT single-stranded linker to array surface; dsDNA, one strand shown. The method in brief:
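Binding signal is defined as the fluorescence intensity of each feature in arbitrary units, read on an Axon 4000B scanner. Transcription factors with N-terminal polyhistidine and DsRed fusions came from E. coli BL21-CodonPlus and were purified on Ni–NTA. They were incubated at 200 nM for 1 h at 25 °C on a custom Agilent array that had been made double-stranded with Cy5-dUTP, with 50 µM zinc acetate present, and the array was washed.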
Regarding “TGCACTGAACCAAGTGTAATGCCGTCAAGATCATGATTGGCGGAGTCACCTAGTGCAG”, the binding signal is 3140 fluorescence intensity (a.u.).
Consider “CGATAAGCGTCGATTTGCAAGGGTGGTTCGTGGGCGAATGCGGAGTCACCTAGTGCAG”, for which the binding signal is 3980 fluorescence intensity (a.u.).
The same measure for “CGCGTCGCTACGTGGTCACGCGAACACCTGCACTGCAGTACGGAGTCACCTAGTGCAG”: 3360 fluorescence intensity (a.u.).
The figure for “GCTATTTATCTCATATGATGTCTTGGATGTTGTGTAGAAACGGAGTCACCTAGTGCAG” is 40600 fluorescence intensity (a.u.); for “TTTTCAGCTTGGGCTACGTCAGATTGCCGTCCCTTGAAGCCGGAGTCACCTAGTGCAG” it is 5310 fluorescence intensity (a.u.).
The same measure for “GGTTTTAGAGTACGGTTTTGCTGACATGGGGCTTTGACCCCGGAGTCACCTAGTGCAG”: 7070 fluorescence intensity (a.u.); for “GCGTGCCTCCGTTTTGCACAGTCATGCATGTCTTTACAGTCGGAGTCACCTAGTGCAG”: 6160 fluorescence intensity (a.u.); for “TCCGTCATACAACCCAAACCTCCGTCATGCCTCAACCATACGGAGTCACCTAGTGCAG”: 3250 fluorescence intensity (a.u.).
For “TTCCGCTGTGGCGGCGTCCCAATGTCCCACCCACGTAGCCCGGAGTCACCTAGTGCAG”, the binding signal is 4440 fluorescence intensity (a.u.).
Turning to “AGATGGGTCACCTCGCCGGCGGAAAGGAGACGACACGTTGCGGAGTCACCTAGTGCAG”, the binding signal was 4730 fluorescence intensity (a.u.).
For the sequence “CGCTAGCTTTATTTAAAATGGAAAGGACACATCACACACTCGGAGTCACCTAGTGCAG”, the binding signal was 3940 fluorescence intensity (a.u.).
The figure for “GAACTAATCGGCAGTTGGCCCACGCCCTCGCCATGTGTCCCGGAGTCACCTAGTGCAG” is 3480 fluorescence intensity (a.u.).
The same measure for “GAATAAAAGTTCAACATACACGTGTTAATTTCTGATACTCCGGAGTCACCTAGTGCAG”: 7090 fluorescence intensity (a.u.); for “TTGATCATCAGAAATAAATGCCAGTGAGAAAACAGCATGGCGGAGTCACCTAGTGCAG”: 30700 fluorescence intensity (a.u.).
The figure for “GTGAGAACTGAGAGGAGCGTCGGAAGAAGACCGGAAGAAGCGGAGTCACCTAGTGCAG” is 4580 fluorescence intensity (a.u.); for “AAAGCAACCAGTTACCATGACTATGCACCCGACACCTGGCCGGAGTCACCTAGTGCAG” it is 3960 fluorescence intensity (a.u.); for “TTTCGACACCGATAGGCTTCGTCACGACGGGTTTTGTCCACGGAGTCACCTAGTGCAG” it is 4570 fluorescence intensity (a.u.).
On to “GGTGACTCTGAAACTGGAGATGCTCCAAGCAACAGAGCCACGGAGTCACCTAGTGCAG”, for which the binding signal is 3810 fluorescence intensity (a.u.).
The same measure for “ATAATAATTTTAAAATAAGATGATGAGTCAAACGTTGTATCGGAGTCACCTAGTGCAG”: 5260 fluorescence intensity (a.u.); for “TGGTCGCGTCCAGTCAGCTCGTCTGCCTTGGCCCGCAGCCCGGAGTCACCTAGTGCAG”: 6300 fluorescence intensity (a.u.); for “TTAATTGATCCATATATTTCGCAGATTCTTGTGTTCTTGCCGGAGTCACCTAGTGCAG”: 14300 fluorescence intensity (a.u.).
As for “TATTACTTTGCTGTTTAACTTTGATTTCTGACACTAACATCGGAGTCACCTAGTGCAG”, the binding signal was 3410 fluorescence intensity (a.u.).
The figure for “ATTGAGCCAGCCGTTATCCAATACAATCGTGACACGTTGTCGGAGTCACCTAGTGCAG” is 5610 fluorescence intensity (a.u.); for “CGTGGCCCGTGTGGCCCGCTTCCACAACCTGCGGCCGGCGCGGAGTCACCTAGTGCAG” it is 18800 fluorescence intensity (a.u.).
On to “GCGGCGGAGGAAGAGGAAGAGAAGGCGATAGATCTGGTGCCGGAGTCACCTAGTGCAG”, for which the binding signal was 33400 fluorescence intensity (a.u.).
For the sequence “CCAAAGCTTACTCACCAGTCACAACAAAACTTTTACATAACGGAGTCACCTAGTGCAG”, the binding signal was 3470 fluorescence intensity (a.u.).
Turning to “TTCTCTACCAGCGGCAGCGGCGGCTGGTAGGGAGGAGGAGCGGAGTCACCTAGTGCAG”, the binding signal is 4860 fluorescence intensity (a.u.).
“TCGTCTCCGCCTCCGGCTTCCCCTATCCATTCCCCTCGCCCGGAGTCACCTAGTGCAG”: the binding signal was 3540 fluorescence intensity (a.u.).
The figure for “CCACCACCGAGCACCGTGGCCGCGTGTGGCGCGCGTGTACCGGAGTCACCTAGTGCAG” is 4200 fluorescence intensity (a.u.).
Consider “GCGAGGATTCTTCGCCGACTGCTTCGTGTCATCTCGTCTCCGGAGTCACCTAGTGCAG”, for which the binding signal is 4140 fluorescence intensity (a.u.).
The same measure for “TTTCGGCCGAAGGCGACGTGACGTAGCCACTAGTAGATCTCGGAGTCACCTAGTGCAG”: 6150 fluorescence intensity (a.u.); for “AATCTAACAATGCTTCGGGTGGTGTGGGTGATTTGGTTCACGGAGTCACCTAGTGCAG”: 3760 fluorescence intensity (a.u.).
The same measure for “ACCGCGCTGACTAGACCAGCAGTCCAGCACACAACACTAGCGGAGTCACCTAGTGCAG”: 5130 fluorescence intensity (a.u.).
On to “GACACGCGAGGGACCTCATCGCCCCAACTAATCCGCTTTGCGGAGTCACCTAGTGCAG”, for which the binding signal is 34900 fluorescence intensity (a.u.).
For the sequence “CAGGCAATGCGTTGCGTTTTCTCACACGTGCTCTCAGCGTCGGAGTCACCTAGTGCAG”, the binding signal is 4120 fluorescence intensity (a.u.).
The same measure for “CCACCGCCGCCACACAGTCCGCTTCGGTTCCCCGTTTCCGCGGAGTCACCTAGTGCAG”: 65500 fluorescence intensity (a.u.); for “GAAGGTAAGATCACTTCAATAGAAGAATCGAGAAGAGTGCCGGAGTCACCTAGTGCAG”: 3550 fluorescence intensity (a.u.).
The figure for “GAGCATGGAGAGAGTATAATCCACGTGATCTGCAACCATCCGGAGTCACCTAGTGCAG” is 3600 fluorescence intensity (a.u.); for “CCTTGGTGAGTCACGGGACGTACACGTCAGCGGCGTGATCCGGAGTCACCTAGTGCAG” it is 29900 fluorescence intensity (a.u.).
The same measure for “GACTGCAATTCTGCAATCACCTACGTGTACTTGAACCGAACGGAGTCACCTAGTGCAG”: 3590 fluorescence intensity (a.u.); for “GGCGAGAGCGGCACGCCGTGGCATTGGACGAACACTCGTACGGAGTCACCTAGTGCAG”: 4050 fluorescence intensity (a.u.); for “ACTTTAGCCGATATGAGTTTACCCTACCTTGGAATATCTACGGAGTCACCTAGTGCAG”: 3800 fluorescence intensity (a.u.).
